The list shows a part of the results. Most values lie at the level of the controls, where differences are scatter.

The chains behind the UniProt entries cited, without tags or fusion partners. Where a name states a change or a piece, a line headed by the entry shows the natural chain unless it says otherwise.
UniProt Q99MS3: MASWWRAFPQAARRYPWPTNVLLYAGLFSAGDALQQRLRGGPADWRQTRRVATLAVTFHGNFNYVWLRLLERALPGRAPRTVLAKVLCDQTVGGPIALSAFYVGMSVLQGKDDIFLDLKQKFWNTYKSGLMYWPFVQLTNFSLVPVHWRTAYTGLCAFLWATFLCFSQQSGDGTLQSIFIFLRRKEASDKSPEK
UniProt Q99N20: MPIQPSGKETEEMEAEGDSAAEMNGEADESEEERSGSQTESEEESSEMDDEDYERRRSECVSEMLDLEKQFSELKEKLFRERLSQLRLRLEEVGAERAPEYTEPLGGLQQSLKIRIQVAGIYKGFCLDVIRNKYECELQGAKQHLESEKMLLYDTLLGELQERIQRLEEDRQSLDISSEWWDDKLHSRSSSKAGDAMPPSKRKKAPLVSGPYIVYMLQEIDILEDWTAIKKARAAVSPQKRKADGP
UniProt Q9CQH3: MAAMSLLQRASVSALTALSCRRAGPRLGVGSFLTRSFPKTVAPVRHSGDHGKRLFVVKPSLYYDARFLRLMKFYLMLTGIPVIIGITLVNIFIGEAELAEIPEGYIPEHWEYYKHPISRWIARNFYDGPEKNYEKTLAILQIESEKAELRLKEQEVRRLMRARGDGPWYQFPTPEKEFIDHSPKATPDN
UniProt Q99ML1: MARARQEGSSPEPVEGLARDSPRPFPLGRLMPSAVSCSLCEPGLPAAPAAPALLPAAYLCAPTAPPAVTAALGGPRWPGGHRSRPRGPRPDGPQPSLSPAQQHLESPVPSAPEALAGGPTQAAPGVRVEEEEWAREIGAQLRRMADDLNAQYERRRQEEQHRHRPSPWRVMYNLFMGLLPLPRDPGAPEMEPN
UniProt Q9CQ10: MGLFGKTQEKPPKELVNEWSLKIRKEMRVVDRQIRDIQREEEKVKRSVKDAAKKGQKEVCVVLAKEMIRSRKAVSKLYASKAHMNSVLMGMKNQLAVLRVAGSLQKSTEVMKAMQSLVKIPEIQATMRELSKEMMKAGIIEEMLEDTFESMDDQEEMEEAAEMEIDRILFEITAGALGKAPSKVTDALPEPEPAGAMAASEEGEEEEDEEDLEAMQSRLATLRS
UniProt Q99M87: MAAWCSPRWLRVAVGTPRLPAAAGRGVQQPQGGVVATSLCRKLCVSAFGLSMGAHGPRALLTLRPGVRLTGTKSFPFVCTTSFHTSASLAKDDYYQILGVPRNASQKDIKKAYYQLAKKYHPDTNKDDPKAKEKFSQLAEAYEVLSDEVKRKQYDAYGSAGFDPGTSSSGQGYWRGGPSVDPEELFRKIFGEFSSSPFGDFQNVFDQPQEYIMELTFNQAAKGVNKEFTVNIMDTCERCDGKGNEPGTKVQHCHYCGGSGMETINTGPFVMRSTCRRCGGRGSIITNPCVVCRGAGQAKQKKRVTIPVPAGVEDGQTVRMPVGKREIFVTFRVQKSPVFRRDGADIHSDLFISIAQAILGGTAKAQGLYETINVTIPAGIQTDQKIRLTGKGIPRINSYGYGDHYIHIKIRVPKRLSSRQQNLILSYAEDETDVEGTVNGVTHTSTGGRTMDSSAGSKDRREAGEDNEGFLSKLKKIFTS
UniProt Q99MJ9: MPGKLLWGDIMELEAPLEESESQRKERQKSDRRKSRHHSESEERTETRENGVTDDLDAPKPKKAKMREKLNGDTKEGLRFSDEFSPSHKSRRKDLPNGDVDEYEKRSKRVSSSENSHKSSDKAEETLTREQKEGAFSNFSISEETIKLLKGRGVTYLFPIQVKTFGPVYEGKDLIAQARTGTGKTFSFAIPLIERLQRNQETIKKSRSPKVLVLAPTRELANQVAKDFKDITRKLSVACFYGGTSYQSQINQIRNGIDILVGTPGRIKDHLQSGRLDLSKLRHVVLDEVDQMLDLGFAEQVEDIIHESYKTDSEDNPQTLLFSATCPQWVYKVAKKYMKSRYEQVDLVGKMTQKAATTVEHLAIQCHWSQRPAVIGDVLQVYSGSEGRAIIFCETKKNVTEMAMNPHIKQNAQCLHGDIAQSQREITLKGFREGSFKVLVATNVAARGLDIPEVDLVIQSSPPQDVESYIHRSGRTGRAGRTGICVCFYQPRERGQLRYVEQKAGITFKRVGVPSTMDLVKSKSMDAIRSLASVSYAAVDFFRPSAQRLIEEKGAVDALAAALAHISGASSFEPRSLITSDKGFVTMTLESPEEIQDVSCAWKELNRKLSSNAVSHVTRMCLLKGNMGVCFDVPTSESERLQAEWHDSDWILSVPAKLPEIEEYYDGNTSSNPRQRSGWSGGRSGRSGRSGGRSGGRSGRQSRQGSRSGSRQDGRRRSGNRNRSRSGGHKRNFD
UniProt Q9CQE0: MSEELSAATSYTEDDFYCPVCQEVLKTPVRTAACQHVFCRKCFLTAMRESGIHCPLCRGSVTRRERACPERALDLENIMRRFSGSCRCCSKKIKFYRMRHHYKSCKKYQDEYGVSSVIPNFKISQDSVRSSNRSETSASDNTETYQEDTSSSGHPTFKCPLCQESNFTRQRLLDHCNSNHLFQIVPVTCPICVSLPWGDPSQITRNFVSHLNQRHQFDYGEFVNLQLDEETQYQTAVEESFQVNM
UniProt Q99M01: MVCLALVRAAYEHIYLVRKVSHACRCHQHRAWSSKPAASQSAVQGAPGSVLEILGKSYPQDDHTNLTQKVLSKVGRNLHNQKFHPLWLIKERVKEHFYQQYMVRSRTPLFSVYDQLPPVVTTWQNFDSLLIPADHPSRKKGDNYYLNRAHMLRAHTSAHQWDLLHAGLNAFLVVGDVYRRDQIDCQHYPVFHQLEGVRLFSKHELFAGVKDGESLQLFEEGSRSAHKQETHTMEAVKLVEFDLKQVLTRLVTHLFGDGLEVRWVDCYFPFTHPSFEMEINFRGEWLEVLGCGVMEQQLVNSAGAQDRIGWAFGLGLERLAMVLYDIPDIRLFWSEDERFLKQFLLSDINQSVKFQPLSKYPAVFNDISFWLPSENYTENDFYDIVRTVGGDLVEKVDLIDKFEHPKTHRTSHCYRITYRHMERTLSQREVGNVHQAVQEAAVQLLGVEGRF
UniProt Q9CQJ4: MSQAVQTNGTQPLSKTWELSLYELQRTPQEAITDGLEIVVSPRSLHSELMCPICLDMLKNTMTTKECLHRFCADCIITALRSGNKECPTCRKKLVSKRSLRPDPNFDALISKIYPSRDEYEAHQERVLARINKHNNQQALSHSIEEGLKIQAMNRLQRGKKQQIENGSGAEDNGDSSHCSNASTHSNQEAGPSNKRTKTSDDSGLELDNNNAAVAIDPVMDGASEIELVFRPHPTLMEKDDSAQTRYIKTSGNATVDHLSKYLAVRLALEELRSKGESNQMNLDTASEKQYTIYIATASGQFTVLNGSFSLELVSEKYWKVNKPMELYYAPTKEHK
UniProt Q9CQE5: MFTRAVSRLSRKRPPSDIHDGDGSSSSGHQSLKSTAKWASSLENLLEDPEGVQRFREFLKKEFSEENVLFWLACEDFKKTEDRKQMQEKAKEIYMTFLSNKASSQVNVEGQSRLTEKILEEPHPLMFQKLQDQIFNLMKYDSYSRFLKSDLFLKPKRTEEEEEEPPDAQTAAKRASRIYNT
UniProt Q99MR1: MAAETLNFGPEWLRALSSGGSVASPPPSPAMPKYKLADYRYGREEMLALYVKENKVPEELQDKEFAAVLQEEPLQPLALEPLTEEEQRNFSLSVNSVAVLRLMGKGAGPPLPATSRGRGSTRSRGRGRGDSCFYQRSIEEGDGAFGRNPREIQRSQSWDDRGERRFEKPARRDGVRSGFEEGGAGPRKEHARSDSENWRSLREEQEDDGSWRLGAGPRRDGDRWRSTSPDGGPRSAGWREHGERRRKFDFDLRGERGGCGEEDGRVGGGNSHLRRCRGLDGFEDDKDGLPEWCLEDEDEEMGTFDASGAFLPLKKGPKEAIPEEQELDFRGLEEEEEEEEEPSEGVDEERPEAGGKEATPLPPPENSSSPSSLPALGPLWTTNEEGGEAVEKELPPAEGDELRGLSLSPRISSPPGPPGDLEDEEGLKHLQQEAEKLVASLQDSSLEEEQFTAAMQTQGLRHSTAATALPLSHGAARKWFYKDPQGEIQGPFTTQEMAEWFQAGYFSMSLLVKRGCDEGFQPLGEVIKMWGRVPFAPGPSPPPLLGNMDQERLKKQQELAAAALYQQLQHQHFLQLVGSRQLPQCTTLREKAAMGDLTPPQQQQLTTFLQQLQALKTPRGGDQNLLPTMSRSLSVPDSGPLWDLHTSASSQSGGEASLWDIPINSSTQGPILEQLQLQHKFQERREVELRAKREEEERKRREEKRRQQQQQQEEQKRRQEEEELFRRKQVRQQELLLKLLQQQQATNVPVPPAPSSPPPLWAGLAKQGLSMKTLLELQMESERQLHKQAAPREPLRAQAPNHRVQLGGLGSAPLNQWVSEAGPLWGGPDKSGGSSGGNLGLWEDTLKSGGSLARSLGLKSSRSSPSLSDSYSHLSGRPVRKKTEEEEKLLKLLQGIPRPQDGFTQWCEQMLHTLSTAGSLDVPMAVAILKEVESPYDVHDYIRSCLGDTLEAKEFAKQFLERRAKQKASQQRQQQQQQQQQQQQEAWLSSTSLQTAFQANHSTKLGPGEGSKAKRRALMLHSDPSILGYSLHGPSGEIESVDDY
UniProt Q9CR09: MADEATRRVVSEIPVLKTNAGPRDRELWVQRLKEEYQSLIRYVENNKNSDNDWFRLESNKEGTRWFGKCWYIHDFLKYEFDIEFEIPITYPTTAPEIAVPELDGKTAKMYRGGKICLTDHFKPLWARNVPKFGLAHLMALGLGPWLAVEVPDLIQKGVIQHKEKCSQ
UniProt Q9CR16, whole entry: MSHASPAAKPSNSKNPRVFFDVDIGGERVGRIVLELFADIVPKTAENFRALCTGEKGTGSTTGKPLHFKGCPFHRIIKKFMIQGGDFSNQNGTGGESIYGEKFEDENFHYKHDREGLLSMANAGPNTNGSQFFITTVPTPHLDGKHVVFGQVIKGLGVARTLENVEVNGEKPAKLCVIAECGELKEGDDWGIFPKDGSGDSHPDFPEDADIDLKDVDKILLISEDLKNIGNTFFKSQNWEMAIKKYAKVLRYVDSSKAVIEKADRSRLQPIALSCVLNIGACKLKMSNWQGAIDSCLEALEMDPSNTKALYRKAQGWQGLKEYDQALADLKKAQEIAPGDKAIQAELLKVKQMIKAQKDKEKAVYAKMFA
UniProt Q9CPW3: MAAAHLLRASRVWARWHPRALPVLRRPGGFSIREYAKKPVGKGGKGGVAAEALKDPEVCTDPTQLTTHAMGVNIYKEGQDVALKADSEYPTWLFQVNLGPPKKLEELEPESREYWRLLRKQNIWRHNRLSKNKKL
UniProt Q99LW0: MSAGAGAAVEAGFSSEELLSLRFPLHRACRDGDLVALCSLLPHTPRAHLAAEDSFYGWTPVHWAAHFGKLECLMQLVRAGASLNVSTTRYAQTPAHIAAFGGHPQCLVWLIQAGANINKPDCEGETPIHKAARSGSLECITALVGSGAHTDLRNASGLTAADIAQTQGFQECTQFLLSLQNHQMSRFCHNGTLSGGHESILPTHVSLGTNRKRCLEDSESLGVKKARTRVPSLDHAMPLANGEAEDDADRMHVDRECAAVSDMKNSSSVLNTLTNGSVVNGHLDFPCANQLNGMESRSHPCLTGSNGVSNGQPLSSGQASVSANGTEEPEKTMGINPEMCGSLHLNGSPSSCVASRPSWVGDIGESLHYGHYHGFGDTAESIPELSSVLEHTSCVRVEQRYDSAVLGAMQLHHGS
UniProt Q9CQP0: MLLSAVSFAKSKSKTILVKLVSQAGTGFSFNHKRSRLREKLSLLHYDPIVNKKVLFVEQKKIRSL
UniProt Q9CQC7: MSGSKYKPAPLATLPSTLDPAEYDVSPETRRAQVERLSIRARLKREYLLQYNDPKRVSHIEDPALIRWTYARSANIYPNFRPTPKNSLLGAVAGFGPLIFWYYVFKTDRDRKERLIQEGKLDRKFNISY
UniProt Q9CQL0: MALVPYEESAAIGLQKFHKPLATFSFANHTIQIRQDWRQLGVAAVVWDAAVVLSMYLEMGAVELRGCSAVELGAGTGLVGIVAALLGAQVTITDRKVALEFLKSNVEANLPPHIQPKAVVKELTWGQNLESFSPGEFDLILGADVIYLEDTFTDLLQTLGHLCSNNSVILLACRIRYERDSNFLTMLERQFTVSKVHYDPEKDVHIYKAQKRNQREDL
UniProt Q9CQ48: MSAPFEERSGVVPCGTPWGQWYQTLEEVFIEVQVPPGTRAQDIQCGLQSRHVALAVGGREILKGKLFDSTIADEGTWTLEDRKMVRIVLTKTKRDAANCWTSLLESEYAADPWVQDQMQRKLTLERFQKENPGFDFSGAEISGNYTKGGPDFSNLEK
UniProt Q9CQA1, whole entry: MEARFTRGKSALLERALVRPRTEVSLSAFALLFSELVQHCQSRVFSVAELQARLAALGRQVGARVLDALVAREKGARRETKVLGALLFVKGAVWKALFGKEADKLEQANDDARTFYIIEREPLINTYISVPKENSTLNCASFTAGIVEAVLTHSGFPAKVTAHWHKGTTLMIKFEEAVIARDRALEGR

Compound in the assay: CN[C@@H]1C[C@H]2O[C@@](C)([C@@H]1OC)n1c3ccccc3c3c4c(c5c6ccccc6n2c5c31)C(=O)NC4 [staurosporine]
The assay is described as follows: log2 fold change of tryptic peptide abundance, ligand vs vehicle (limited proteolysis) (log2 ratio); higher = more trypsin-susceptible (destabilized). The settings on record: ligand concentration: 20 uM; sample: mouse liver crude lysate; replicate design: treated separately.
On to “UniProt Q99MS3 (peptide sequence: EASDKSPEK, peptide start residue: 186)”, for which the log2 fold change stood at 0.00737.

Turning to “UniProt Q99N20 (peptide sequence: NKYECELQGAK, peptide start residue: 132)”, the log2 fold change is 0.275.

Consider “UniProt Q9CQH3 (peptide sequence: ARGDGPWYQFPTPEKEFIDHSPK, peptide start residue: 162)”, for which the log2 fold change is -0.191.

As to “UniProt Q99ML1 (peptide sequence: ARQEGSSPEPVEGLAR, peptide start residue: 4)”, the log2 fold change was 0.0912.

Regarding “UniProt Q9CQ10 (peptide sequence: AHMNSVLMGMK, peptide start residue: 82)”, the log2 fold change stood at 0.108.

In the case of “UniProt Q99M87 (peptide sequence: GGPSVDPEELFR, peptide start residue: 176)”, the log2 fold change was -0.136.

As for “UniProt Q99MJ9 (peptide sequence: KLSSNAVSHVTR, peptide start residue: 608)”, the log2 fold change is 0.56.

“UniProt Q9CQE0 (peptide sequence: ALDLENIMR, peptide start residue: 72)”: the log2 fold change was -0.128.

Take “UniProt Q9CR21 (peptide sequence: LYDKIDPEKLSVNSHFMK, peptide start residue: 89)”: the log2 fold change worked out at 0.171.

As to “UniProt Q99M01 (peptide sequence: LFWSEDER, peptide start residue: 331)”, the log2 fold change turned out to be 0.335.

Turning to “UniProt Q9CQJ4 (peptide sequence: VNKPMELYYAPTK, peptide start residue: 321)”, the log2 fold change came out at 0.587.

In the case of “UniProt Q9CQE5 (peptide sequence: ASSQVNVEGQSR, peptide start residue: 102)”, the log2 fold change was 0.194.

As to “UniProt Q99MR1 (peptide sequence: SDSENWR, peptide start residue: 193)”, the log2 fold change was -0.286.

As to “UniProt Q99N95 (peptide sequence: GQPASHGQTK, peptide start residue: 226)”, the log2 fold change was -0.152.

In the case of “UniProt Q9CR09 (peptide sequence: NSDNDWFR, peptide start residue: 48)”, the log2 fold change is -0.209.

For “UniProt Q9CR16 (peptide sequence: EYDQALADLKK, peptide start residue: 322)”, the log2 fold change is 0.174.

Turning to “UniProt Q9CPW3 (peptide sequence: KLEELEPESR, peptide start residue: 103)”, the log2 fold change amounted to 0.0475.

Take “UniProt Q9CQQ4 (peptide sequence: SQQLDSNVAMPK, peptide start residue: 115)”: the log2 fold change is -0.189.

Consider “UniProt Q99LW0 (peptide sequence: CLEDSESLGVKK, peptide start residue: 214)”, for which the log2 fold change came to 0.138.

For the target “UniProt Q9CQP0 (peptide sequence: LVSQAGTGFSFNHK, peptide start residue: 20)”, the log2 fold change is -0.13.

For the target “UniProt Q9CQC7 (peptide sequence: SANIYPNFRPTPK, peptide start residue: 73)”, the log2 fold change is -0.311.

Consider “UniProt Q9CQL0 (peptide sequence: VHYDPEKDVHIYK, peptide start residue: 196)”, for which the log2 fold change was 0.0671.

In the case of “UniProt Q9CQ48 (peptide sequence: GGPDFSNLEK, peptide start residue: 148)”, the log2 fold change amounted to 0.0647.

In the case of “UniProt Q9CQA1 (peptide sequence: VFSVAELQAR, peptide start residue: 44)”, the log2 fold change was determined as 0.257.

For the origin of these results see the supplement of paper PMC12819154, “High-throughput peptide-centric local stability assay extends protein–ligand identification to membrane proteins, tissues and bacteria” (Nature Structural & Molecular Biology, 2025).
